{"sequences": {"note": "Chains of the proteins cited; added tags and fusions are not shown.", "UniProt Q8TCN5": "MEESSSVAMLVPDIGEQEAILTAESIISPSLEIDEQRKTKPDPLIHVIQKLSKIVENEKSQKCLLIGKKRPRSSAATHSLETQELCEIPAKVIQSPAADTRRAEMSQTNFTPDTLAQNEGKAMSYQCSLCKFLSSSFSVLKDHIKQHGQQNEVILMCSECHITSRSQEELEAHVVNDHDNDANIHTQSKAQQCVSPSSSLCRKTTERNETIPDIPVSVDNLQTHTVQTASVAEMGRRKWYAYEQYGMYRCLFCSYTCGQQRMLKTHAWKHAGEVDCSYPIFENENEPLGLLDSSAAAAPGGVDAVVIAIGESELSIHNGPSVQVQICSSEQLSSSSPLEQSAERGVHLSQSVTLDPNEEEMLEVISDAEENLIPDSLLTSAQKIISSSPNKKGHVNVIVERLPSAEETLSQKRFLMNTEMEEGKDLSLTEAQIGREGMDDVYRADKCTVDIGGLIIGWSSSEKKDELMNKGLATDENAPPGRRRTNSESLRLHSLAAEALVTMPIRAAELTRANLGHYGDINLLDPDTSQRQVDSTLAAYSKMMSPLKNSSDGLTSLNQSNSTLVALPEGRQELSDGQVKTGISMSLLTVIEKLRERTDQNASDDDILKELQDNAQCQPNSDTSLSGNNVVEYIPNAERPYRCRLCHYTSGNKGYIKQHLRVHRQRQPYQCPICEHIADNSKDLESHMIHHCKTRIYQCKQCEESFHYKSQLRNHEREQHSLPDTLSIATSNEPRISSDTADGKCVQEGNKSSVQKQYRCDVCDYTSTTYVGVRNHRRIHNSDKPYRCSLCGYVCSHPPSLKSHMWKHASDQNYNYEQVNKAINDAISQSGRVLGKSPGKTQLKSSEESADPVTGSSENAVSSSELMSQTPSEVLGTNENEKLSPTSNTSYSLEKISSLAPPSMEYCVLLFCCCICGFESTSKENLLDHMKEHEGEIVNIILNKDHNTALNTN", "UniProt O14744": "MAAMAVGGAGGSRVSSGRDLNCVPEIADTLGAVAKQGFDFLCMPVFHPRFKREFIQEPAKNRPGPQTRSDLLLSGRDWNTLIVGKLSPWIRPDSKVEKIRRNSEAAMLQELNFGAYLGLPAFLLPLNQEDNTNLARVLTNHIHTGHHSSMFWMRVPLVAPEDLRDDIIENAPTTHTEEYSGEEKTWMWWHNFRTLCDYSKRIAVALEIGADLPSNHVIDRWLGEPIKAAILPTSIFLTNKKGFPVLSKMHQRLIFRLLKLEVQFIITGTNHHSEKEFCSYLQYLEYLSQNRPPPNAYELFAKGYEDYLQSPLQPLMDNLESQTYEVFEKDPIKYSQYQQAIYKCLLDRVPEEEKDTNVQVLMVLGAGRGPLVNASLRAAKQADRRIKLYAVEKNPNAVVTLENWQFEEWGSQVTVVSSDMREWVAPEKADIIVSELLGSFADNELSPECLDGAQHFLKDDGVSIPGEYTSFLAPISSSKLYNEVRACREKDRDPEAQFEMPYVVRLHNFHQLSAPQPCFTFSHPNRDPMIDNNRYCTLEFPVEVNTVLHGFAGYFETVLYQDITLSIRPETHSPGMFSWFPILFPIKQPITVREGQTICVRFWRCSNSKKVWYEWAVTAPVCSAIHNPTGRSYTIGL"}, "source": "paper PMC8896011", "biological_target": "3xFLAG-tagged ZNF507 (human) (UniProt Q8TCN5)", "test": "affinity purification with mass spectrometry; nuclear extract (500 mM NaCl, diluted with an equal amount of Dilution buffer) of HEK293 cells transfected with 3xFLAG-ZNF507 or empty vector; pre-cleared with Protein A dynabeads; anti-FLAG M2 magnetic beads 6 h at 4°C; washes in 20 mM Tris-HCl pH 7.5, 150 mM NaCl with 0.1% Triton X-100 and once without detergent; eluted with 3X-FLAG peptide; LC-MS/MS", "note": "No constants are given. Whether binding was seen depends on the method and setting. In cells and extracts the contact can be indirect. These calls come from enrichment with a bait or labelling near it, and not all partners need be listed."}
{"substance": "protein arginine methyltransferase 5 (from UniProt O14744 1-637) (enzyme)", "values": [{"measurement": "binding", "result": "binds"}]}
